Source: the supplement of paper PMC6411743
± gives the standard deviation of the averaged measurements. This is one part of the list.

By UniProt entry, the sequences of proteins in these tests, tags left out. Where a name states a change or a piece, a line headed by the entry shows the natural chain unless it says otherwise.
UniProt Q8N6S5: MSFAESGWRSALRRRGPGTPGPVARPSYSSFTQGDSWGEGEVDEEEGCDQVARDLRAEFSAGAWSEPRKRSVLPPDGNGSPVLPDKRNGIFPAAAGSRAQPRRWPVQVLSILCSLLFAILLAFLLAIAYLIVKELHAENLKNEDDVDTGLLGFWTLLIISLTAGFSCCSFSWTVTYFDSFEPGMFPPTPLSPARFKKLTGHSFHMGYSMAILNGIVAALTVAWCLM
UniProt Q86WV6: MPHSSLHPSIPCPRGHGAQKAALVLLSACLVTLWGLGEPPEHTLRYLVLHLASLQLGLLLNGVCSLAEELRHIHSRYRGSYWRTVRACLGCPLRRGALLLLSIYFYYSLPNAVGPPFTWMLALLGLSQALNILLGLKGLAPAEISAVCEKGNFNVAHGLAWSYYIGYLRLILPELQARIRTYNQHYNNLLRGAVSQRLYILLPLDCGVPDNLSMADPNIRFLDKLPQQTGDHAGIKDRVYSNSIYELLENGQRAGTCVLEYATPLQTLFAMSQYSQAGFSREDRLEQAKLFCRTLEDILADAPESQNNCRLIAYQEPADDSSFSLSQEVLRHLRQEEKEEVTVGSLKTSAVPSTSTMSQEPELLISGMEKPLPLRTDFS
UniProt Q8N6R0: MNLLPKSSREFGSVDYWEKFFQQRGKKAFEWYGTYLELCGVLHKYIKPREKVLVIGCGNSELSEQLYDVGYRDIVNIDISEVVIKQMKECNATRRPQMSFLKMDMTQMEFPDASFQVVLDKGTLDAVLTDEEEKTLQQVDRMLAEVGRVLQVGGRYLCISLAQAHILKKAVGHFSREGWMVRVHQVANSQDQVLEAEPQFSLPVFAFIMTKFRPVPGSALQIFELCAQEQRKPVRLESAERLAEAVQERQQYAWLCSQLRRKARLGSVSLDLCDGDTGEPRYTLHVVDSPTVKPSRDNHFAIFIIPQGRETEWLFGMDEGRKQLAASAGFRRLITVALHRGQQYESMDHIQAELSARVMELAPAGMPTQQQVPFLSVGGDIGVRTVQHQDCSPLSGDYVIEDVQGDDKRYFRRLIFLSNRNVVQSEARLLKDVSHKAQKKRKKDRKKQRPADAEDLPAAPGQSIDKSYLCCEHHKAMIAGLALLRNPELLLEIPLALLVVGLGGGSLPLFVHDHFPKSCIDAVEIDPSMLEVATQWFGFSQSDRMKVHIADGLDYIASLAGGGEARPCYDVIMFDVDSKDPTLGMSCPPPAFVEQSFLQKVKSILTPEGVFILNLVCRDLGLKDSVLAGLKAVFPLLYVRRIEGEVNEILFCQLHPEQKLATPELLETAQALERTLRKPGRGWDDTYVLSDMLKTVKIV
UniProt Q8IX18: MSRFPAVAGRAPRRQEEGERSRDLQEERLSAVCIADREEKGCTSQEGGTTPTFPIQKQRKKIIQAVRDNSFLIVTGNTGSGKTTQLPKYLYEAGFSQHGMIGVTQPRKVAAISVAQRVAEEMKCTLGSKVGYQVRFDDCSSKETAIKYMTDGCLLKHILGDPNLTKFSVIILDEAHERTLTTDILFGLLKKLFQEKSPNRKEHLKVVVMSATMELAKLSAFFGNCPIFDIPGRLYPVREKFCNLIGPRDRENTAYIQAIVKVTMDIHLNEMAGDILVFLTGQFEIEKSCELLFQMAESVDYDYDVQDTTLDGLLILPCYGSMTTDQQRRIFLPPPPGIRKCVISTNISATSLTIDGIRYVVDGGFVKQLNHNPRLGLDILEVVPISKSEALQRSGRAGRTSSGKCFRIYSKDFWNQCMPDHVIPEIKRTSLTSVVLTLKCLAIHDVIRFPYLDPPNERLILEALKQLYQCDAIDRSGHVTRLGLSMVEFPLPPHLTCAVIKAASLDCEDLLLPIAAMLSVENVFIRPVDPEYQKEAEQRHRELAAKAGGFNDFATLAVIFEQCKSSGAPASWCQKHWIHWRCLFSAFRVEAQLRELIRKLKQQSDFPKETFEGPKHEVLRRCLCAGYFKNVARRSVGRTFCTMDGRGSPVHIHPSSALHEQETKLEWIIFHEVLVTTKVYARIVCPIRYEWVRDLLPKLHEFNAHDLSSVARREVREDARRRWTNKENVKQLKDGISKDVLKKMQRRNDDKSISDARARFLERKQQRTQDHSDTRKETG
UniProt Q8NE86: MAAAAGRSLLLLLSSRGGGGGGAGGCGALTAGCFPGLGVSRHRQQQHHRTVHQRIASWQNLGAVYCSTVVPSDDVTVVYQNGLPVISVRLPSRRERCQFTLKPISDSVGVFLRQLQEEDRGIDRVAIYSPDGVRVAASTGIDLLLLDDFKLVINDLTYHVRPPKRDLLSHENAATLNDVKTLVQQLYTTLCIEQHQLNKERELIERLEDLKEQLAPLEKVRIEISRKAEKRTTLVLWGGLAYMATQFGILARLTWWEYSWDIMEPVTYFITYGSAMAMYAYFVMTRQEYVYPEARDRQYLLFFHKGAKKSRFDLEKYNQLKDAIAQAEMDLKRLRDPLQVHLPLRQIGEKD

Compound: Nc1nc2c(ncn2[C@@H]2O[C@H](COP(=O)(O)OP(=O)(O)OP(=O)(O)O)[C@@H](O)[C@H]2O)c(=O)[nH]1 [guanosine triphosphate]
Assay: NP40-soluble protein abundance relative to vehicle (solubility fold change) (ratio); higher = more soluble protein in presence of GTP
Protocol: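 Solubility proteome profiling in Jurkat crude lysate. Lysate was treated with Mg-GTP (0.1-10 mM) for 10 min at room temperature and 3 min at 37 °C, then solubilised with 0.8% NP40 and benzonase, followed by ultracentrifugation. Proteins were quantified by TMT10 LC-MS/MS; the value is the NP40-soluble abundance relative to the NP40-processed vehicle, from 3 independent experiments.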

Target | NP40-soluble protein abundance (concentration: 0.1mM) | NP40-soluble protein abundance (concentration: 0.5mM) | NP40-soluble protein abundance (concentration: 1mM) | NP40-soluble protein abundance (concentration: 2mM) | NP40-soluble protein abundance (concentration: 4mM) | NP40-soluble protein abundance (concentration: 6mM) | NP40-soluble protein abundance (concentration: 8mM) | NP40-soluble protein abundance (concentration: 10mM)
ARL6IP6 (UniProt Q8N6S5) | 0.994 ± 0.05 | 1.06 ± 0.14 | 1.05 ± 0.077 | 0.998 ± 0.095 | 0.991 ± 0.11 | 0.979 ± 0.065 | 0.982 ± 0.032 | 0.992 ± 0.11
TMEM173 (UniProt Q86WV6) | 0.843 ± 0.015 | 0.97 ± 0.055 | 0.869 ± 0.064 | 0.918 ± 0.084 | 0.852 ± 0.066 | 0.904 ± 0.057 | 0.832 ± 0.026 | 0.928 ± 0.042
UniProt Q8N6R0 and related entries | 1.1 ± 0.087 | 1.1 ± 0.12 | 1.04 ± 0.09 | 1.05 ± 0.11 | 1.05 ± 0.049 | 1.03 ± 0.1 | 1.02 ± 0.045 | 0.997 ± 0.056
UniProt Q8IX18 and related entries | 1.12 ± 0.049 | 1.16 ± 0.043 | 1.08 ± 0.058 | 1.13 ± 0.06 | 1.07 ± 0.14 | 1.05 ± 0.11 | 1.05 ± 0.059 | 1.02 ± 0.12
UniProt Q8NE86 and related entries | 1.13 ± 0.051 | 1.07 ± 0.079 | 0.978 ± 0.057 | 0.975 ± 0.1 | 1.02 ± 0.1 | 0.968 ± 0.051 | 0.915 ± 0.055 | 0.868 ± 0.031
